Reference: article PMC9547286, “LOXL2-dependent deacetylation of aldolase A induces metabolic reprogramming and tumor progression^☆” (Redox Biology, 2022)
These are yes or no findings as the source states them, for the method shown. In cells and extracts the contact can be indirect. Some binding calls cover weakened binding; strength is not graded here. For some assays here: Where a sequence is shown, tags or fusion partners need not be part of it.

Protein sequences, listed by entry. Tags and fused reporters are not part of them. Residues count along the entry.
UniProt P06733: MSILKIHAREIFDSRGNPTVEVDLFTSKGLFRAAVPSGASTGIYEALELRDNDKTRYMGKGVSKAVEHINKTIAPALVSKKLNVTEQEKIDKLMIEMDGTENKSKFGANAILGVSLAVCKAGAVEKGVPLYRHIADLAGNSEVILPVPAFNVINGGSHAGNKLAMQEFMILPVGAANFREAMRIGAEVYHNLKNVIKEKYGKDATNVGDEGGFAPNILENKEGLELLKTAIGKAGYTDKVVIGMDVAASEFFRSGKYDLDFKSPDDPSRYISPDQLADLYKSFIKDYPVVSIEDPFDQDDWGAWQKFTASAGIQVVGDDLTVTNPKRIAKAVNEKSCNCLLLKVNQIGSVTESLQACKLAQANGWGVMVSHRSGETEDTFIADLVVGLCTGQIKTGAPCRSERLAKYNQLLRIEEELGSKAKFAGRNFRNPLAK
UniProt P04406: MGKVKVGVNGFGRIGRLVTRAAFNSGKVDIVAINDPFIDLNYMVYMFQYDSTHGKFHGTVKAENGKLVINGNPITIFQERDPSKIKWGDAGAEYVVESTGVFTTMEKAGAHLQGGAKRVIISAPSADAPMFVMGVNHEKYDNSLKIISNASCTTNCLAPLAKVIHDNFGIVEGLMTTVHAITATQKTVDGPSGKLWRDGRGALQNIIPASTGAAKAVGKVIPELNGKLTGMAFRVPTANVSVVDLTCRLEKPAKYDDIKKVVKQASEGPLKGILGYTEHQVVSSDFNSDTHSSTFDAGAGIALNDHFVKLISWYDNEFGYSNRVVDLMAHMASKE
UniProt Q9Y4K0, residues 26-774: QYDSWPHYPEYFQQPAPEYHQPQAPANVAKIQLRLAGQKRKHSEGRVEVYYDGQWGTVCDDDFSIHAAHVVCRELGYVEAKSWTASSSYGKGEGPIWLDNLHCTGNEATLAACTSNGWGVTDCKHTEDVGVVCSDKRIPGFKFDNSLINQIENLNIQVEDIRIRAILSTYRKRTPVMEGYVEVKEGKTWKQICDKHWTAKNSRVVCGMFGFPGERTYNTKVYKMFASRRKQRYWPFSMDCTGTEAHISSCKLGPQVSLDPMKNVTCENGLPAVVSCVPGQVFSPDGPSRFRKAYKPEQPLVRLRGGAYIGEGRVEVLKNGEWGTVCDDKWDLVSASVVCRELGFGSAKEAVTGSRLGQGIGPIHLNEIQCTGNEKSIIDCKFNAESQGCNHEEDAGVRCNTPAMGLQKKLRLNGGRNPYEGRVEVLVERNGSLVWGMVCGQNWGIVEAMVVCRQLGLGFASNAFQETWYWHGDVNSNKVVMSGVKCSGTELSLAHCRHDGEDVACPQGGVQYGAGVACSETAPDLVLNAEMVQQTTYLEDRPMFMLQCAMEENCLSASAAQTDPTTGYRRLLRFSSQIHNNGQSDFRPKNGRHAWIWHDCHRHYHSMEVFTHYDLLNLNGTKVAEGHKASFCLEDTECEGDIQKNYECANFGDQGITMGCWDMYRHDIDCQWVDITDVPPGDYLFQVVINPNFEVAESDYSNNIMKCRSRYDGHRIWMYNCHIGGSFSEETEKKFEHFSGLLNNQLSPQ

Key:
[1] = molecular target: T1, endogenous aldolase A of KYSE510 cells (human (endogenous in KYSE510)) (UniProt P04075); experiment: proximity ligation; Duolink in situ PLA in fixed, permeabilised KYSE510 cells; rabbit anti-LOXL2, anti-L2Δ13 or anti-GAPDH with mouse anti-aldolase A; endogenous proteins
T1 sequence: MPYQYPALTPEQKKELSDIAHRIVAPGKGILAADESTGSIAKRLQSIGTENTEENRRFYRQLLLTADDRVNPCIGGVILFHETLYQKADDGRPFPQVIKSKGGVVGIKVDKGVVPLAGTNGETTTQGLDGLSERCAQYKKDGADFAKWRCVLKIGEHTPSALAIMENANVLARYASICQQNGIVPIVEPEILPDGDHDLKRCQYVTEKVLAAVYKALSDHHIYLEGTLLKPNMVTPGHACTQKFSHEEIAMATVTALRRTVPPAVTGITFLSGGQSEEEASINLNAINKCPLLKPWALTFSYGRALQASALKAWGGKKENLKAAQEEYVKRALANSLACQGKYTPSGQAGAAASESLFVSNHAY

GST-aldolase A (human) = molecular target: T2, GST-aldolase A (human) (UniProt P04075); experiment: pull-down; GST-aldolase A or GST immobilised on glutathione resins, incubated with KYSE510 whole cell lysate at 4 °C for 2 h; washed with lysis buffer pH 7.3, 137 mM NaCl, 0.1% Triton X-100; western blotting; only the target purified
T2 sequence: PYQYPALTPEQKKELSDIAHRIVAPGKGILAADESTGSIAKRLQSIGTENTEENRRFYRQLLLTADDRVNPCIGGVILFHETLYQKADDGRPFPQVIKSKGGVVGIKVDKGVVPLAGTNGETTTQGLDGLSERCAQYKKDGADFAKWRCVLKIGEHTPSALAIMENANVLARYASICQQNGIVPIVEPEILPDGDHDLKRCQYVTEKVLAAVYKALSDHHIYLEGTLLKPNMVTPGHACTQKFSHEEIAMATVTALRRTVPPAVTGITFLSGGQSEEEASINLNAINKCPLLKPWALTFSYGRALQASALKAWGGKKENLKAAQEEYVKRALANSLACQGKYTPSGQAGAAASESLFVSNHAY

enolase-Flag = enolase-Flag (UniProt P06733); experiment: co-IP; HEK293T cells co-transfected with LOXL2-HA or L2Δ13-HA and Flag-tagged glycolytic enzyme; whole cell lysates immunoprecipitated with anti-Flag, western blotting
[2] = molecular target: GAPDH-Flag (glyceraldehyde-3-phosphate dehydrogenase) (UniProt P04406); experiment: as above
aldolase A-Flag (human) = molecular target: T3, aldolase A-Flag (human) (UniProt P04075); experiment: as above
T3 sequence: T2 sequence

binding [1]	binding (GST-aldolase A (human))	binding (enolase-Flag)	binding [2]	binding (aldolase A-Flag (human))	Substance
binds	binds	–	–	–	endogenous LOXL2 of KYSE510 cells (from UniProt Q9Y4K0 26-774) (enzyme)
–	–	binds	binds	binds	LOXL2-HA (lysyl oxidase-like 2, full-length) (from UniProt Q9Y4K0 26-774) (enzyme)
